For part of these data: Negatives hold for the conditions tested. For part of these data: For at least one entry, the source does not settle the construct or the ends of the probe. For part of these data: The comparison behind a weaker result is the experiment's own reference, which may not be listed here. For part of these data: Protein sequences can lack the tags named with them.
Columns and labels:
[1] = molecular target: T1, C-reactive protein (CRP), biotinylated (UniProt P02741); assay: lateral flow assay, competition; details: 5' SH-(C6H12) thiol, LFA: 20 mM Tris, 50 mM NaCl, 5 mM KCl, 5 mM MgCl2, 2 mM CaCl2, 0.1 mM BSA, 1.7% Triton X-100, pH 8, temperature not stated, commercial protein, protein details: biotin (NHS-PEG4-Biotin), label: 10 nm gold nanoparticle via 5' thiol, single-stranded DNA
T1 sequence (looked up, limits assumed): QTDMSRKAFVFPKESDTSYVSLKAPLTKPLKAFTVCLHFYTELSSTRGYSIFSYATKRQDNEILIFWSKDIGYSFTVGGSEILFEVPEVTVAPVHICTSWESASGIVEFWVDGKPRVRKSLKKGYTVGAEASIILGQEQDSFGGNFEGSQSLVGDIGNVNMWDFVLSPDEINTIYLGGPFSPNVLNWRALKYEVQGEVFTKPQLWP

Amino acid sequences for entries named in this document (tags omitted). A change or cut given only in a name is not applied to a line headed by its entry. Residues count along the entry.
UniProt P22629: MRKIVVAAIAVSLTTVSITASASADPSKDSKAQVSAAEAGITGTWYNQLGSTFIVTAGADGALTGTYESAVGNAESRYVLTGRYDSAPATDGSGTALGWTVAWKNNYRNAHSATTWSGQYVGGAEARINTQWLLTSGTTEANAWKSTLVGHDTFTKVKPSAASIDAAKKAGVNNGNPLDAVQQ
UniProt P02769, 25-607: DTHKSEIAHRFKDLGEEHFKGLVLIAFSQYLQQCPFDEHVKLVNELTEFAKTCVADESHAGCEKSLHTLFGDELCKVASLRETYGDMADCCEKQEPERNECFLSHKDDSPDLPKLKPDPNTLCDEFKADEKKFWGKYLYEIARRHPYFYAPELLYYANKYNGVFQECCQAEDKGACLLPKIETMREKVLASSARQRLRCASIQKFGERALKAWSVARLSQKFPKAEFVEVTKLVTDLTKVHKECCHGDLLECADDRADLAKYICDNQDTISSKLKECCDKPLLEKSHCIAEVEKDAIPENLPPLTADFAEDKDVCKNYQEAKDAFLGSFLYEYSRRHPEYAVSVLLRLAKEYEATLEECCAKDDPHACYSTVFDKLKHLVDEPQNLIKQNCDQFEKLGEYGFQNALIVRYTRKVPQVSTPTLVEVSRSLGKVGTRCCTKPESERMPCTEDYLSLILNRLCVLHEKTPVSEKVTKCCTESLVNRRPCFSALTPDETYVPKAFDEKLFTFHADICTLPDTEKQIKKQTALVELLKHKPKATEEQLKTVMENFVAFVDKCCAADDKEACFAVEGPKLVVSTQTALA

streptavidin = streptavidin (UniProt P22629); assay: lateral flow assay (AuNP); details: no-target control; 5' SH-(C6H12) thiol; LFA: 20 mM Tris, 50 mM NaCl, 5 mM KCl, 5 mM MgCl2, 2 mM CaCl2, 0.1 mM BSA, 1.7% Triton X-100, pH 8, temperature not stated; commercial protein; label: 10 nm gold nanoparticle via 5' thiol; single-stranded DNA
[2] = molecular target: bovine serum albumin (BSA), biotinylated (UniProt P02769); assay: lateral flow assay (AuNP); details: 40.5 µg BSA-biotin, same outcome stated for α-Amp-poly(T) and α-CRP; 5' SH-(C6H12) thiol; LFA: 20 mM Tris, 50 mM NaCl, 5 mM KCl, 5 mM MgCl2, 2 mM CaCl2, 0.1 mM BSA, 1.7% Triton X-100, pH 8, temperature not stated; commercial protein; protein details: biotin; label: 10 nm gold nanoparticle via 5' thiol; single-stranded DNA

Sequence: ACACGATGGGGGGGTATGATTTGATGTGGTTGTTGCATGATCGTGG [α-CRP (AuNP conjugate)]
- binding result ([1]; 18.5 µg ampicillin per strip (32.6-fold excess) reduces test line): binds more weakly
- binding result (streptavidin): no binding

Sequence: CACGGCATGGTGGGCGTCGTG [α-Amp-short (AuNP conjugate)]
- binding result ([1]; 185 µg ampicillin per strip (about 326-fold excess) reduces test line): binds more weakly
- binding result [2]: no binding
- binding result (streptavidin): no binding

Sequence: TTTTTTTTTTTTTTTCACGGCATGGTGGGCGTCGTG [α-Amp-poly(T) (AuNP conjugate)]
- binding result (streptavidin): no binding

From article PMC5884802
